PubChem BioAssay AID686937 – Drosophila RNAi Screening Center, 2013
In all, the deposit lists about 23,000 reagents; shown is an unselected part of those with a known target gene and a result. 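Reduced-secretion tags in replicate 1 do not always agree with the z-scores; no criterion for assigning the tags was given.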 Reagents against one gene are numbered here. Names joined by + are all predicted targets of the reagent. No sequences are given here. Not given: the amount of reagent.

Aim: 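Knock-downs that reduce output of a secreted reporter enzyme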 (primary screen)
Cell system: Drosophila S2 cells expressing secreted horseradish peroxidase
Reagent: long dsRNA against Drosophila genes
Timing: about 5.5 days (5 days dsRNA, then 12 h reporter induction)
Conditions: reporter expression induced after 5 days of dsRNA, read 12 h later; inducer not stated
Measured: 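After 5 days of dsRNA and 12 h of reporter induction, medium peroxidase read by chemiluminescence and scored as per-plate z-score; higher values mean more reporter released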
Direction: z-score: higher = more reporter secreted into medium

predicted target,reagent,"z-score, replicate 1","z-score, replicate 2","z-score, replicate 3","z-score, replicate 4","phenotype, replicate 1"
Fmo-1,1,0.07,0.32,,,
Rgk3,1,0.5,0.3,0.59,0.23,
Rgk3,2,0.26,0.59,,,
Rgk3,3,-0.51,-0.05,,,
Rgk3,4,0,0.34,,,
MED7,1,-5.42,-4.75,,,reduced secretion
CG18788,1,0.43,0.26,,,
CR40450 + CG32767,1,-0.33,-0.36,,,
Rev1,1,-0.14,-1.18,,,
dpr2,1,0.3,0.12,,,
dpr2,2,-0.09,-0.17,,,
Aldh7A1,1,0.29,0.33,,,
Cka,1,0.34,-0.06,,,
Cka,2,-2.07,-1.76,,,reduced secretion
Sodq,1,0.19,0.34,,,
MED8,1,-3.77,-3.57,,,reduced secretion
Vm26Aa,1,-0.17,0.17,,,
CG17328,1,0.22,0.21,0.16,0.33,
CG17328,2,1.4,0.62,,,
hob,1,0.3,0.42,,,
CG11269,1,0.08,0.14,,,
CG12170,1,0.09,0.19,0.35,0.38,
CG12278,1,-0.15,-0.47,,,
PRL-1,1,-0.48,0.25,,,
CG31019,1,0.08,0.48,,,
Sas-4,1,0.15,0.16,,,
san,1,-0.93,-0.44,,,
PGRP-SB2,1,0.37,0.3,,,
lectin-21Cb,1,0.5,0.25,,,
CG33110,1,-1.56,-0.83,,,reduced secretion
CG33110,2,0.49,0.49,,,
AdipoR,1,0.21,0.33,,,
link,1,-1,-0.05,,,
SuUR,1,0.31,0.4,,,
CG14708,1,0.38,0.4,,,
CG16727,1,0.32,0.46,,,
mei-41,1,0.15,-0.26,,,
iPLA2-VIA,1,-0.68,0.05,,,
Teh3,1,0.47,0.44,,,
CG13449,1,0.49,0.58,,,
CG31528,1,0.35,0.23,,,
CG43327 + CG43328,1,0.29,0.48,,,

Entries listed so far whose target name begins with M or m (3):
predicted target,reagent,"z-score, replicate 1","z-score, replicate 2","z-score, replicate 3","z-score, replicate 4","phenotype, replicate 1"
MED7,1,-5.42,-4.75,,,reduced secretion
MED8,1,-3.77,-3.57,,,reduced secretion
mei-41,1,0.15,-0.26,,,

Continued.
predicted target,reagent,"z-score, replicate 1","z-score, replicate 2","z-score, replicate 3","z-score, replicate 4","phenotype, replicate 1"
Sox21b,1,0.18,0.5,0.47,0.4,reduced secretion
Sox21b,2,-0.36,0.03,,,
Sox21b,3,1.42,0.78,,,
CG18622,1,-0.2,-0.06,,,
mael,1,0.12,0.19,,,
Cp19,1,0.36,0.45,,,
CG3500,1,-0.25,-0.29,,,
CNMaR,1,0.03,0.34,,,
CNMaR,2,0.26,0.26,,,
CG10947,1,0.19,0.18,,,
alpha-Est5,1,0.35,0.54,,,
CG18367,1,0.48,0.37,0.65,0.58,
Synj,1,0.28,0.38,,,
CG4332,1,0.49,0.3,,,
jus,1,-1.86,-0.83,,,reduced secretion
jus,2,0.41,0.6,,,
CG12684,1,0.28,0.42,,,
CG2993,1,0.14,-0.11,,,
CG2993,2,0.59,0.68,,,
CG9447,1,0.31,0.22,,,
Adf1,1,-0.31,,,,
Adf1,2,0.26,0.23,,,
betaNACtes6,1,-0.12,-0.17,,,
Grip163,1,0.01,0.15,,,
shn,1,0.78,0.18,,,
shn,2,0.24,0.29,,,
Nup50,1,0.13,0.22,,,
CG34223,1,0.24,0.06,,,
CG14820,1,-0.2,-0.07,,,
Rsod,1,0.19,-0.33,,,
Spc105R,1,-3.98,-4.01,,,reduced secretion
ND-39,1,0.14,-0.06,,,
CG10038,1,0.33,0.38,,,
CG7402,1,0.1,0.15,,,
orb,1,-3.02,-2.81,,,reduced secretion
CG11756,1,0.42,0.36,,,
Brd7-9,1,-0.13,0.19,,,
CG12096,1,-0.15,-0.07,,,
CG5355,1,-0.37,0.19,,,
Mob3,1,0.31,0.31,,,
